# Measured values taken from article PMC7819943, “Rice protein-binding microarrays: a tool to detect cis-acting elements near promoter regions in rice”.
# This is one part of the list.
# Biological target: T1, OsSMF1 (Oryza sativa, UniProt Q6ZLB0 1-436)
# T1 sequence: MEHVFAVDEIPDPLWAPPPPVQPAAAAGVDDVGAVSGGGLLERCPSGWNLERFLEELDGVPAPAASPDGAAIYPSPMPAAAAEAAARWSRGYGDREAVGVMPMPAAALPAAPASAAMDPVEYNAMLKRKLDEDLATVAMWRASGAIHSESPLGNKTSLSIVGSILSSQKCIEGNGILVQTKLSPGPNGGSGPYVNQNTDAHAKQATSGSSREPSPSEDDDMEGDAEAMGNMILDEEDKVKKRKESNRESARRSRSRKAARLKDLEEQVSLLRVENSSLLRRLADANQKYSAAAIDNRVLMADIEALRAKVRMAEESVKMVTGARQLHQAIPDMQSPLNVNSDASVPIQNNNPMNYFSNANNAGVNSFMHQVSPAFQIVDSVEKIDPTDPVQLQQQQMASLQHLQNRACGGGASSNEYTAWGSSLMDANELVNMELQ
# Assay: protein-binding microarray (RPBM); PBS, 2% BSA, 51.3 ng/ul salmon testes DNA, 50 uM zinc acetate, 200 nM TF, 25 C, 1 h; high values mean tight binding
# Conditions: protein: recombinant; tags: N-terminal polyhistidine and DsRed monomer fusion (pET32a); chain copies: 2; label: CyDye5-dUTP incorporated in the synthesized complementary strand; 3' TTTTT single-stranded linker to array surface; dsDNA, one strand shown
# Outline: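 The binding signal for each feature is its fluorescence intensity in arbitrary units. An Axon 4000B scanner was used to read a custom Agilent array that had been made double-stranded with Cy5-dUTP primer extension, blocked with 2% BSA, incubated at 25 °C for 1 h with 200 nM protein in PBS, 2% BSA, salmon testes DNA and 50 µM zinc acetate, and washed. The protein was an N-terminal polyhistidine–DsRed transcription factor fusion from E. coli BL21-CodonPlus, purified on Ni–NTA.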
row,Sequence,binding signal
1,CTTTTCCTCTCATCTCGTCATCTCCACGCGCGGCATCTGACGGAGTCACCTAGTGCAG,6180 fluorescence intensity (a.u.)
2,GTCGATGATTCAGAGGAGCTTCCTATTTACCCCTACGTGGCGGAGTCACCTAGTGCAG,6240 fluorescence intensity (a.u.)
3,GGGATCGAGGGGATCCGATCGATCGATCTGTAGAGGAGGCCGGAGTCACCTAGTGCAG,3250 fluorescence intensity (a.u.)
4,AGCTGCGTACAAGGTTACAGTCAGACTGAGTCTTGCTATCCGGAGTCACCTAGTGCAG,3930 fluorescence intensity (a.u.)
5,TACCTTGTTTTGCCTATGTACGCGCGGACGTGTGGGCGAGCGGAGTCACCTAGTGCAG,3820 fluorescence intensity (a.u.)
6,TAATATTGTAGCTGTTGGATAAGGCATGTTTGGTTGAGTACGGAGTCACCTAGTGCAG,3300 fluorescence intensity (a.u.)
7,TGAAGAAGAAAGACAAACCTGATTCAGCTCAGCCAACTACCGGAGTCACCTAGTGCAG,26500 fluorescence intensity (a.u.)
8,ACGGTGAAAACATTGTGTGGGTGTGGCATCTTATTTCTCCCGGAGTCACCTAGTGCAG,3210 fluorescence intensity (a.u.)
9,ATGTCATTTTAACCTTTAATTTGGCGTGTTGACAATTATACGGAGTCACCTAGTGCAG,3650 fluorescence intensity (a.u.)
10,TAGTTCTGTCAGTACCAGTTCCACGTCAAAGAAACCACGGCGGAGTCACCTAGTGCAG,8200 fluorescence intensity (a.u.)
11,TGAAGGCATGGCCAGGAACCAGGGTCAAAGGAGCAACAAGCGGAGTCACCTAGTGCAG,3420 fluorescence intensity (a.u.)
12,CCACCACGCTGCCAGCTTCGCACCCTGTCTCACTGTCGCCCGGAGTCACCTAGTGCAG,4020 fluorescence intensity (a.u.)
13,CTATTTGATTCAACAGGTTTCATGTCATCTAGCTTTCTAACGGAGTCACCTAGTGCAG,3670 fluorescence intensity (a.u.)
14,CCTTCCAACATGTTTATTATGCATGAGATGTGTGCAACGACGGAGTCACCTAGTGCAG,3360 fluorescence intensity (a.u.)
15,AGTTCTAATTTTAATACATAAAAGGACATGTCATGGTCGCCGGAGTCACCTAGTGCAG,3200 fluorescence intensity (a.u.)
16,AGTTTCAGTGGGTGTTAGTGTGTCACCATCCATGGCAAGCCGGAGTCACCTAGTGCAG,7790 fluorescence intensity (a.u.)
17,AGTATCTCTTTCACAAAAGCCTACGTCATCTTTAAATTAGCGGAGTCACCTAGTGCAG,5060 fluorescence intensity (a.u.)
18,CTAAACCCTAGCCACTGCCCGGGCGGAGAGTTGGGGTTTGCGGAGTCACCTAGTGCAG,27800 fluorescence intensity (a.u.)
19,CCAACCTGCGGAGCCGTACACGTGTACCACAGGCCGTGGACGGAGTCACCTAGTGCAG,11100 fluorescence intensity (a.u.)
20,CCTTCCTGTTCCTGCCTACTGTCAGATGAAGTGGTCATCGCGGAGTCACCTAGTGCAG,3330 fluorescence intensity (a.u.)
21,TTCTCTCTCCAACACCCCAACACGGGGATGACACGTCATACGGAGTCACCTAGTGCAG,18300 fluorescence intensity (a.u.)
22,ACGGAAGAGAGAGAGAAATTAAACTGATGACGTCACCGAGCGGAGTCACCTAGTGCAG,19600 fluorescence intensity (a.u.)
23,GCTACAAATAGTCTGCCACAACTCAGTTGCTTTGCCATTGCGGAGTCACCTAGTGCAG,3850 fluorescence intensity (a.u.)
24,TAGGCCGGCGAGTCATCTTCCTTATAATGGATTCCTCAACCGGAGTCACCTAGTGCAG,24600 fluorescence intensity (a.u.)
25,GACGGATGGGCCGGATGGAGACCGGTCGATCGAGACGTACCGGAGTCACCTAGTGCAG,3270 fluorescence intensity (a.u.)
26,GACGCCACACCAACGTGTGCGCCACCGGTGGCTGCCGGCCCGGAGTCACCTAGTGCAG,3930 fluorescence intensity (a.u.)
27,GGCCCCACGTTACCCTTTCGCGCACACGTGTCCCCTATCACGGAGTCACCTAGTGCAG,8730 fluorescence intensity (a.u.)

# Laid out differently: results already given.
row	Sequence	binding signal
23	GCTACAAATAGTCTGCCACAACTCAGTTGCTTTGCCATTGCGGAGTCACCTAGTGCAG	3850 fluorescence intensity (a.u.)
24	TAGGCCGGCGAGTCATCTTCCTTATAATGGATTCCTCAACCGGAGTCACCTAGTGCAG	24600 fluorescence intensity (a.u.)
25	GACGGATGGGCCGGATGGAGACCGGTCGATCGAGACGTACCGGAGTCACCTAGTGCAG	3270 fluorescence intensity (a.u.)
26	GACGCCACACCAACGTGTGCGCCACCGGTGGCTGCCGGCCCGGAGTCACCTAGTGCAG	3930 fluorescence intensity (a.u.)
27	GGCCCCACGTTACCCTTTCGCGCACACGTGTCCCCTATCACGGAGTCACCTAGTGCAG	8730 fluorescence intensity (a.u.)

# Further entries follow:

row,Sequence,binding signal
1,TTTGTCGATTTGCGCTGAAAATCGTTTCCCGTCACTGCCACGGAGTCACCTAGTGCAG,3970 fluorescence intensity (a.u.)
2,CATATACTACATTGGTGCTACATGTGTTATGTGTACAAAGCGGAGTCACCTAGTGCAG,3190 fluorescence intensity (a.u.)
3,CTTCCACTGACATGACACCAAGAGACCACTTTCTTTAATTCGGAGTCACCTAGTGCAG,3250 fluorescence intensity (a.u.)
4,GGTAGTGCTGGCGGTGGCAGTTGTGCTGTCGGCGGCGGCGCGGAGTCACCTAGTGCAG,3240 fluorescence intensity (a.u.)
5,CTAACTCCGGCGCCACGTCGTCCCCGTCGTCGGCTCGCCGCGGAGTCACCTAGTGCAG,12400 fluorescence intensity (a.u.)
6,TTTGCCACTGTCCTACTAGATCTTGGTCTTATTTGAGAAGCGGAGTCACCTAGTGCAG,3550 fluorescence intensity (a.u.)
7,ACACCCCGAGCCCGCGTTATAATGGACCTCAACAGAAAGACGGAGTCACCTAGTGCAG,4090 fluorescence intensity (a.u.)
8,CACCTTCTGTGCGCTTGCTTTGCGAATTCGGTCGTCGCCGCGGAGTCACCTAGTGCAG,3290 fluorescence intensity (a.u.)
9,TAGGTCGGATAGACTGATTCTACAAACACGTAGCCCTAGGCGGAGTCACCTAGTGCAG,3140 fluorescence intensity (a.u.)
10,GTCGCGCAGCCGCTGACGTTTCGTTGTGTCGGCTCCACCCCGGAGTCACCTAGTGCAG,3300 fluorescence intensity (a.u.)
11,TCCGGCGCCTTACTGGTCATCACCAACTCACTGCTCCTCTCGGAGTCACCTAGTGCAG,5760 fluorescence intensity (a.u.)
12,TGGGGTGGTGTGTTGATGCGGCGGGATTCGAGCCCTGGCCCGGAGTCACCTAGTGCAG,3550 fluorescence intensity (a.u.)
13,TCTGATCCCACCTGTCATACACGTATTGTGTCTTGGAGTCCGGAGTCACCTAGTGCAG,10500 fluorescence intensity (a.u.)
14,ATTTTCAAACATCCGATATGATAGGGACTTAAAAGTTGTTCGGAGTCACCTAGTGCAG,3140 fluorescence intensity (a.u.)
15,TGCTGCGTGATTCATATATACTGTCATCTTGCAAAATACACGGAGTCACCTAGTGCAG,3580 fluorescence intensity (a.u.)
16,CGCCTGCAAGATTGACTCTTGCATAAAAGCATGCTCTCTCCGGAGTCACCTAGTGCAG,14500 fluorescence intensity (a.u.)
17,CCTCCTGCTATAGTGCTATCCAAACTGCGGTCCCGCCGGACGGAGTCACCTAGTGCAG,3390 fluorescence intensity (a.u.)
18,TCCTTATTGGTGGAGACCTAGCGTATGTTTCTATCTTTGGCGGAGTCACCTAGTGCAG,3880 fluorescence intensity (a.u.)
19,AACTCTCCAGTCTCCACCCACCTCACTCCACAGTCCACACCGGAGTCACCTAGTGCAG,3150 fluorescence intensity (a.u.)
20,GAAGGAGCGGCACACGGTGGTGATCCGGCGGCAGCTCGACCGGAGTCACCTAGTGCAG,3860 fluorescence intensity (a.u.)
21,TTACTGTAGCACCACATTATCAAATCATGACGCAATCAGGCGGAGTCACCTAGTGCAG,3940 fluorescence intensity (a.u.)
22,GATTCCTGCCTTGATTAGCATGTCACACATCGATGTCAGCCGGAGTCACCTAGTGCAG,3680 fluorescence intensity (a.u.)
23,CTCCCCTGTCGTGTACTCGTCCCTAGCCTAATCCATCCGCCGGAGTCACCTAGTGCAG,4210 fluorescence intensity (a.u.)
24,TGGCCGTGGGCCCCGACAGCCCAGTCCGACGTGTCACCGGCGGAGTCACCTAGTGCAG,15600 fluorescence intensity (a.u.)
25,CGTCTCTCTCCGCTCCCACGTGCTAGCACACCCAACCTCTCGGAGTCACCTAGTGCAG,4440 fluorescence intensity (a.u.)
26,GACCATCCAATCGTGACTCAACCTACTAACAACTGATTCCCGGAGTCACCTAGTGCAG,9320 fluorescence intensity (a.u.)
27,TGCAGATGGTGCTGTGAAAGCTCTTGAACAGCAGGAAGGTCGGAGTCACCTAGTGCAG,43400 fluorescence intensity (a.u.)
